Changes are numbered by the printed parent chain. These are yes or no findings as the source states them, for the method shown. Some binding calls cover weakened binding; strength is not graded here.
B1: DR5TAA-0006 (antibody, V domains shown)
VH: QSLEESGGRLVTPGTPLTLTCTASGFSLSSNHMSWVRQAPGKGLEWIGYIYAGSGSAYYASWAKGRFTISRTSTTVDLKMTSLTTEDTATYFCAGDAGSSYWEFNLWGPGTLVTVSS
VL: LVMTQTPSSTSEPVGGTVTIKCQASQSIGSSLSWYQQKPGQPPKLLIYHASTLASGVPSRFSGSRSGIQTTLTISGVQCDDAATYYCLGVADARRDDGFAFGGGTEVVVKG
B2: DR5TAA-0013 (antibody, V domains shown)
VH: B1 VH with S27T, L28I, N31Y, G55A, A57T, Y58W, A63V, R71K, G95R
VL: LVMTQTPSSTSEPVGGTVTIKCQASQSIGSSLSWYQQTPGQPPKLLIYTASSLASSVPKRFSGSRSGTQFTLTISGVQCADAATYYCLGIDDVRRDDGFAFGGGTEVVVKG
B3: DR5TAA-0010 (antibody, V domains shown)
VH: QSLEESGGRLVKPDETLTLTCTVSGFSLSSNAISWVRQAPGMGLEWIGIIGSSGYTYYASWAKGRFTVSKTSTTVDLEIASPTTEDTATYFCARGYSGASDYSFNLWGPGTLVTVSS
VL: AYDMTQTPDSVEVAVGGTVTIKCQASQTIGDALAWYQQKPGQRPNLLIYRTSTLASGVPSRFSGSGSGTHFTLTISGVECADAATYYCQQGATYNNVLNTFGGGTEVVVKG
B4: DR5TAA-0005 (antibody, V domains shown)
VH: QSLEESGGRLVTPGTPLTLTCTASGFSLSSAYMSWVRQAPGKGLEWIGYIYSGSGSTWYASWVKGRFTISKTSTTVDLKITSPTTEDTATYFCARGYSTMGDLWGPGTLVTVSS
VL: QVLTQTPSPVSAAVGGTVTINCQASQSVYNNRLAWYQQKPGQPPKLLIYLASTLASGVPSRFKGSGSGTQFTLTISDLQCDDAATYYCAGGYSGNINAFGGGTEVVVKG
B5: DR5TAA-0011 (antibody, V domains shown)
VH: QSVEESGGRLVTPGTPLTLTCTVSGFSISRYAMIWVRQAPGEGLEYIGFITSDSSAYYASWAKGRFTISKTSTTVDLKMTSPTTEDTATYFCARYTYSDGTDLWGPGTLVTVSS
VL: DIVMTQTPASVSEPVGGTVTIKCQASQSISTYLSWYQQKPGQPPKRLIYKASTLASGVPSRFKGSGSGTDFTLTIRDLECADAATYYCQPNSGIATYGAAFGGGTEVVVKG
B6: DR5TAA-0019 (antibody, V domains shown)
VH: QSVEESGGRLVTPGTPLTLTCTVSGFSLSNYAMSWVRQAPGKGLEWIGIISSSGTTYYASWAKGRFTISKTSTTVDLKVTSPTTEDTATYFCARETYYGYSYAAGLWGPGTLVTVSS
VL: ALVMTQTPSSVSAAVGGTVTINCQASQNIYSNLAWFQQKPGQPPKLLIYETSKLASGVPSRFSGSGSGTEFTLTISDLECDDAATYYCQSSWHSISTDCAFGGGTEVVVKG
B7: DR5TAA-0016 (antibody, V domains shown)
VH: QSLEESGGRLVKPDETLTLTCTVSGFSLNNYAMSWVRQAPGKGLEWIGMINKYGTKYYATWTKGRATISKTSTTLDLEITSPTTEDTATYFCARVRYAGDDYAEWLDVWGQGILVTVSS
VL: DIVMTQTASPVSAAVGGTVTINCQASQSISSSYVSWYQQKPGQPPKLLIYKASTLASGVPSRFSGSGSGTQLSLTIRGVQCDDAATYYCLYGYSDVSSSEYVFGGGTEVVVRG

What follows are binders tested against Cynom. DR5 (ECD)-AcTev-Fc-Avi (cynomolgus) (assay: binding ELISA).

binding, binds:
B1
B2
B3
B4
B5
B6
B7

From US20190062453A1
